Data from article PMC6990627 (ACS Omega, 2020).
Where a name gives a salt, the structure may show the parent alone.

Columns and labels:
[1] = PAMPA-BBB; values over 3.3 × 10^–6 cm/s said to cross the BBB
[2] = in vitro; conditions: PAMPA, pH 7.4

COc1cc2c(cc1OC)C(=O)C(CC1CCN(Cc3ccccc3)CC1)C2 (centres unmarked) [donepezil HCl, donepezil hydrochloride]
BBB/CNS permeability classification [1]: CNS+
Papp at 18 h, 100 μM [2]: 9.54 ×10⁻⁶ cm/s
